Data as given in PubChem BioAssay AID1159578 (Peter MacCallum Cancer Centre, 2015)

- Aim: 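Genome-wide hunt for genes controlling movement of lymphatic endothelial cells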 (primary screen)
- System: human lymphatic endothelial cells
- Reagents: siRNA pool against human genes, 40 nM
- Time to read-out: 48 h after transfection
- Detection: 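Cells stained with dye and imaged after a scratch; covered wound area and nuclei counted, duplicates averaged, migration set against mock wells and turned into a robust z-score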
- Reading the numbers: migration robust z-score: higher = faster migration into the scratch; nuclei per well: higher = more cells in the well
- Hit rule: 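Pools averaging fewer than 3300 nuclei are never called; remaining pools count as changed when migration robust z lies outside -2 to 2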
- Calls: active = migration changed; inactive = no migration change, or too few cells
Shown is a random part of about 18,000 reagents tested. About 1,030 of all reagents (5.7%) were called active. 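Inactive calls also include pools with fewer than 3300 nuclei, whose migration was not assessed.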 The raw values are shown without normalisation. Not all columns of the deposit are shown.

gene knocked down | migration robust z-score | nuclei per well, duplicate mean | call
GPCPD1 | 0.43 | 5247 | inactive
SIPA1L2 | 0.04 | 5436 | inactive
F2 | 0.68 | 5400 | inactive
PAF1 | 1.04 | 4506 | inactive
FRMPD1 | 0.71 | 6261 | inactive
YPEL1 | -0.26 | 5935 | inactive
M6PR | 0.7 | 5724 | inactive
IL26 | -0.05 | 5946 | inactive
DBI | -0.99 | 1450 | inactive
VSTM1 | -2.54 | 3360 | active
ADM | 0.22 | 6314 | inactive
ZFR | -1.33 | 6836 | inactive
DCLRE1A | 0.73 | 5512 | inactive
HIVEP2 | -0.11 | 4659 | inactive
SEPHS2 | 0.32 | 6350 | inactive

An excerpt from above, showing only “nuclei per well, duplicate mean”:
DBI: 1450
VSTM1: 3360

The results go on:
gene knocked down | migration robust z-score | nuclei per well, duplicate mean | call
CIPC | -0.18 | 5676 | inactive
ELAVL2 | 1.09 | 5455 | inactive
OR51Q1 | 2.15 | 5168 | active
OR5K4 | -0.12 | 6064 | inactive
LYRM4 | -1.94 | 6190 | inactive
TSPYL2 | 0.11 | 5946 | inactive
PRDX3 | -0.36 | 6243 | inactive
ZNF521 | 0.56 | 5136 | inactive
